Results: PubChem BioAssay AID1307 (SRMLSC, 2008)
The whole screen tested about 1,200 compounds, of which fewer than 10 were called active.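 The calls were made as follows: active = inhibition reaching a set limit at one or more tested concentrations; inactive = inhibition under that limit at every dose.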 This is one part of the list. Entries with a potency or affinity are not part of this list.

assay: RAM pathway signaling blockade in S. cerevisiae – dose response (AID 1307);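 also: 0% = DMSO vehicle wells and 100% = 10 µM 1-NA-PP1 control; higher inhibition means more yeast growth since RAM block rescues cells from 5-FOA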; details: S. cerevisiae RAM network URA3 reporter, 5-FOA growth OD615, stronger effect = higher value, yeast express analog-sensitive mutant Cbk1 kinase; at 100 µM unless noted

Max inhibition, inactive:
CCCCOC(=O)c1ccc(NC(=S)NC(=O)c2c(Cl)cnn2C)cc1 6.83% [at 50 µM], COc1ccc(CN(CCC(c2ccccc2)c2ccco2)C(=O)c2ccco2)cc1 (stereo not given) 4.81% [at 6.25 µM], CCOC(=O)c1sc(NC(=O)/C=C/c2cnn(CC)c2C)c(C(=O)OCC)c1C 1.66% [at 3.125 µM], CCOC(=O)c1c(NC(=O)CSc2nnc(-c3ccco3)o2)sc(C)c1C 4.63% [at 0.391 µM], O=C(NCc1ccccc1)C1=C[C@@H](C2CCCCC2)C[C@@H](OCc2ccc(CO)cc2)O1 3.21% [at 0.196 µM], CC(C)CNC(=O)c1c(N)n(/N=C/c2ccccn2)c2nc3ccccc3nc12 2.07% [at 0.196 µM], O=C(CN(Cc1ccccc1F)S(=O)(=O)c1ccc(Cl)cc1)NCCC1=CCCCC1 3.06%, Cc1cc2c(C)ccc(C)c2nc1SCC(=O)c1cccs1 5.59% [at 25 µM], Cc1ccc(C2(CCNS(=O)(=O)c3ccc(C)cc3)CCOC(C(C)C)C2)cc1 (stereo not given) 2.49% [at 1.563 µM], Nc1nc(SCC(=O)NCc2ccc(F)cc2)[nH]c(=O)c1NC(=O)c1ccc(Cl)cc1 4.85%, CCOC(=O)c1ccc(NC(=O)COC(=O)c2cccc(Oc3ccccc3)c2)cc1 2.64% [at 50 µM], O=C(CSc1nnc(SCc2ccc(Cl)cc2)s1)c1ccc2c(c1)OCO2 2.44% [at 25 µM], O=C(Nc1ccccc1)C1=C[C@H](C2CCCCC2)C[C@H](OCc2ccc(CO)cc2)O1 4.12%, Cn1nc(C(F)(F)F)c(/C=N/OC(=O)c2ccccc2)c1SCc1ccccc1Cl 2.79% [at 50 µM], COc1ccc(OCCCn2cccc2/C=C2/C(=N)N3OC(C)=CC3=NC2=O)cc1 1.82% [at 3.125 µM], COc1ccc(C(C)(C)C)cc1NC(=O)COC(=O)c1cc(SC)ccc1Cl 3.84% [at 50 µM], O=C(/C=C/c1cccc([N+](=O)[O-])c1)NCCSCc1ccc(Cl)cc1Cl 2.82% [at 12.5 µM], O=C(CCCOc1ccc(Cl)cc1Cl)N/N=C/c1ccccc1 2.38% [at 3.125 µM], O=[N+]([O-])c1ccc(COc2cccc(CNc3ccc(Br)cc3)c2)cc1 3.95% [at 25 µM], CCOC(=O)C(C)Sc1cc(CS(=O)(=O)c2ccccc2)nc(-c2ccccc2)n1 (stereo not given) 5.53%
